From publication PMC3858551 come the findings set out here.

Sequences of proteins named here, by UniProt entry; tags and fusion partners are left off. Residues count along the entry.
UniProt Q05397: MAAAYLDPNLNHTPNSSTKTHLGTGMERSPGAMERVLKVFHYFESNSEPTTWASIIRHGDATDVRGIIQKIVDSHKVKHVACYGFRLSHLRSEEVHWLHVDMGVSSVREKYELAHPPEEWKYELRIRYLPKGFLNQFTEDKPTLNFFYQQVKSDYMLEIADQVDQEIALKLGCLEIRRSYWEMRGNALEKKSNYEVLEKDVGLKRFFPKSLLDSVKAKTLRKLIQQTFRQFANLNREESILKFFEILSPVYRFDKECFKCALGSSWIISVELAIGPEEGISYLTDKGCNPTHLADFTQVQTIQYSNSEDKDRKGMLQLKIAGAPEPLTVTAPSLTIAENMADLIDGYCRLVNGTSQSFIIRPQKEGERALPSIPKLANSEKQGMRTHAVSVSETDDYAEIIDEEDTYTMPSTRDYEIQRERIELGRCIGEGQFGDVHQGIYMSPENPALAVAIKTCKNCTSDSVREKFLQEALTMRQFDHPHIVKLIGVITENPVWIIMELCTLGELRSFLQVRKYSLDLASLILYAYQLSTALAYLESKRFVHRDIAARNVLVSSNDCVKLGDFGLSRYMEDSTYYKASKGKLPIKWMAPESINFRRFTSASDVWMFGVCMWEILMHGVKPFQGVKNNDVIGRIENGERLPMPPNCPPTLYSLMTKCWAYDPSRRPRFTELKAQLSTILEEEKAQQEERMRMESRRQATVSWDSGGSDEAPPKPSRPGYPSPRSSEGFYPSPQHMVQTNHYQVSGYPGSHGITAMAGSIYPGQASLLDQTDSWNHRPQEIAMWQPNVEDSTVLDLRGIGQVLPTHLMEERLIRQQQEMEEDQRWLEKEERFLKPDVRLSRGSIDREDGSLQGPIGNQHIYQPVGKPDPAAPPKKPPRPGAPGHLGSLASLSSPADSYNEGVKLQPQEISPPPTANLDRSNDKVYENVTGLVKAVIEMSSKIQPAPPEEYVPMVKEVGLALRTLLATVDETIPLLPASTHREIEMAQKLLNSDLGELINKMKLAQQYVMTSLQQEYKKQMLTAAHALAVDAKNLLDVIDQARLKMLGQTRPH
UniProt P35916, residues 25-1363: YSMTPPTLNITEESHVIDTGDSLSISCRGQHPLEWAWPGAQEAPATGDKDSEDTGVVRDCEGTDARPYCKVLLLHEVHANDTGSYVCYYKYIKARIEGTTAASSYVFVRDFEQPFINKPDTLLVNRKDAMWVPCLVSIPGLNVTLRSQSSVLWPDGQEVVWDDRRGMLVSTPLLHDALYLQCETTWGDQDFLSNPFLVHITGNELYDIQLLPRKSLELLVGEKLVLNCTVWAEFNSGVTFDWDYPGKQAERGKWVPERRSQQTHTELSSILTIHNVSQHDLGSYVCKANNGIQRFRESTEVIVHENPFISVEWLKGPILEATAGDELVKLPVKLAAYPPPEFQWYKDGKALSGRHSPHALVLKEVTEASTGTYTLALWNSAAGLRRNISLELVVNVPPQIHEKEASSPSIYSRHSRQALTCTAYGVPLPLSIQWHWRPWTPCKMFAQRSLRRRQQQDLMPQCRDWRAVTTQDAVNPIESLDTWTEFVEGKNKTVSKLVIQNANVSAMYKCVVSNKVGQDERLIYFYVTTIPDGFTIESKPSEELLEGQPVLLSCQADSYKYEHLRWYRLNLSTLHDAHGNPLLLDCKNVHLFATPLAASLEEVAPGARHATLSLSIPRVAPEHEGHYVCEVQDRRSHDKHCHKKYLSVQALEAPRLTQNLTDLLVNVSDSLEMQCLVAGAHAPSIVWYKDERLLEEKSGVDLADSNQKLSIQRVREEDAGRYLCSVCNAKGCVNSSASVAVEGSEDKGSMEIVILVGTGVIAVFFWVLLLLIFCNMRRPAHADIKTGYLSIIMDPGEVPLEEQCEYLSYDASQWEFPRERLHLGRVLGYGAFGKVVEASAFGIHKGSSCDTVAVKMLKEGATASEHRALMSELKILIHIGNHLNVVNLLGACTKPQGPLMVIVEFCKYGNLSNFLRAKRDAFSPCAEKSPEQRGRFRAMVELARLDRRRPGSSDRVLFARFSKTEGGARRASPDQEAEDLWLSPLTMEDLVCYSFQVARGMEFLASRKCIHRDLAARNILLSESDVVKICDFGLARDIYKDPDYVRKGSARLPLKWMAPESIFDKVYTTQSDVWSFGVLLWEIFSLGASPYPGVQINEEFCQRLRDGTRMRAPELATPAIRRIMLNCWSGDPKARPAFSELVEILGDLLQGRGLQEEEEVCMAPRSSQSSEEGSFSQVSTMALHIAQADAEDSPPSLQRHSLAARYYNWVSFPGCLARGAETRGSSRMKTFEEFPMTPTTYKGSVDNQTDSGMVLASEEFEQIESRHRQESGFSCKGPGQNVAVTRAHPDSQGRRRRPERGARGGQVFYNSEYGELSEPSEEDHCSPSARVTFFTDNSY

The target of the test is Focal adhesion kinase (human (endogenous in MiaPaCa-2 and Panc-1)) (UniProt Q05397). Put plainly: co-IP; FAK immunoprecipitated from lysates of MiaPaCa-2 and Panc-1 cells and probed for VEGFR-3; cells treated 24 h with increasing concentrations of C4 (chloropyramine hydrochloride; vehicle, 10 uM), MiaPaCa-2 also with VEGF-C; complex decreased by 10 uM C4.

Results are given in words; binding and its absence hold for the method and conditions named. In cells and extracts the contact can be indirect. Some results given as binding are weak or reduced against the parent protein; the word gives no strength.

For “vascular endothelial growth factor receptor 3 (from UniProt P35916 25-1363)”, the binding result is “binds”.
